Assay [1] has as its target T1, Delta-COP1 full-length, bait fusion in pGBKT7 (rice) (UniProt Q0DJA0).
T1 sequence: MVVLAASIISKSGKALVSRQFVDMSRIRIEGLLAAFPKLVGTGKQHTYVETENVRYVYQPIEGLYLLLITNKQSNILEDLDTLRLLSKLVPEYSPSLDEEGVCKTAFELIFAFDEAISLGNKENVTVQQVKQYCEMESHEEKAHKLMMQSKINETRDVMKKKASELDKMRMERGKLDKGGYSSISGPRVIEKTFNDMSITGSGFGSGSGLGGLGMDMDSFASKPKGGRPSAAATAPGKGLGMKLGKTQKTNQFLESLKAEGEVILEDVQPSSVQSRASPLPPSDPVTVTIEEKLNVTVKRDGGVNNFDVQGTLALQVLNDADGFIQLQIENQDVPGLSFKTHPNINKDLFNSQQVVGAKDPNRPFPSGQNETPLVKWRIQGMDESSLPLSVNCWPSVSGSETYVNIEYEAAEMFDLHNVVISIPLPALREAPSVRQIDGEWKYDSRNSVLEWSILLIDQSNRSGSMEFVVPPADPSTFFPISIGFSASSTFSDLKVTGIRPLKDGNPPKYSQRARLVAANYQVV
Description: two-hybrid; SPL35 full-length and fragments as preys in pGADT7, ubiquitin, OsUBC5a, Delta-COP1 and Delta-COP2 as baits in pGBKT7; yeast AH109; SD/-His-Ade-Leu-Trp with 3 mM 3-AT, 30 °C.

Assay [2] deals with T2, Delta-COP2 full-length, bait fusion in pGBKT7 (rice) (UniProt Q0DJ99).
T2 sequence: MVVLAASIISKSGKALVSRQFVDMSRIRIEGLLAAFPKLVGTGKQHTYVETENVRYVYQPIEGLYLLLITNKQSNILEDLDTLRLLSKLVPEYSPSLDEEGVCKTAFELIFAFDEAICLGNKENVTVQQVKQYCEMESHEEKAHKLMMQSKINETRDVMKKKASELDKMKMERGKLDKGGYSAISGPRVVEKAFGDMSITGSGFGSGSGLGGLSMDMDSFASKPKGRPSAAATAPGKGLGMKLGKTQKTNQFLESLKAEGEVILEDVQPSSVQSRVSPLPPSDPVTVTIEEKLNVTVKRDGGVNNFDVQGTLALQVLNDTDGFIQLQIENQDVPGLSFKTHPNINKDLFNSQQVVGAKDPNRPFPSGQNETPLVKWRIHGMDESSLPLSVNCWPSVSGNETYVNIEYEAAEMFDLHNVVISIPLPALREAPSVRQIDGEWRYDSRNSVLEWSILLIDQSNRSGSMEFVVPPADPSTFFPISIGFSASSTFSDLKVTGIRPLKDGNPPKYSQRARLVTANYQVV
Described as above.

For assay [3], the target named is T3, NeYFP-Delta-COP1 (rice) (UniProt Q0DJA0).
T3 sequence: T1 sequence
In words: split reporter; BiFC: CeYFP-SPL35 with NeYFP fusions in N. benthamiana leaf epidermis cells, eYFP signal 48 h after infiltration.

Assay [4] concerns the target T4, NeYFP-Delta-COP2 (rice) (UniProt Q0DJ99).
T4 sequence: T2 sequence
Described as above.

In assay [5] the target is T5, CLUC-Delta-COP1 (rice) (UniProt Q0DJA0).
T5 sequence: T1 sequence
Description: split reporter; firefly LUC complementation imaging (LCI): NLUC-SPL35 with CLUC fusions in N. benthamiana leaf epidermis cells, 48 h post-infiltration.

Assay [6] addresses T6, CLUC-Delta-COP2 (rice) (UniProt Q0DJ99).
T6 sequence: T2 sequence
Described as above.

The target in assay [7] is T7, GST-Delta-COP1 (rice) (UniProt Q0DJA0).
T7 sequence: T1 sequence
Description: pull-down; GST fusion proteins immobilised on glutathione-sepharose beads (GST binding resin), incubated with purified MBP-SPL35; immunoblot with anti-MBP and anti-GST; both purified.

The target in assay [8] is T8, GST-Delta-COP2 (rice) (UniProt Q0DJ99).
T8 sequence: T2 sequence
The description is as above.

No constants are given. Whether binding was seen depends on the method and setting. Binding can be weak; no strength is given. For part of these data: Where a sequence is shown, tags or fusion partners need not be part of it. For part of these data: Binding seen in cells or lysates may run through a third protein.

As to “SPL35 N-terminal region lacking the CUE domain, prey (AD) fusion in pGADT7 (rice) (domain or fragment)”, the binding result in assay [1] and in assay [2] was “binds” throughout.
On to CeYFP-SPL35 (rice), for which the binding result in assay [3] and in assay [4] was “binds” throughout.
Take “SPL35 CUE domain, prey (AD) fusion in pGADT7 (rice) (domain or fragment)”: the binding entry in assay [1] and in assay [2] was “binds” throughout.
Turning to NLUC-SPL35 (rice), the binding entry in assay [5] and in assay [6] was “binds” in each case.
Take MBP-SPL35 (rice): the binding entry in assay [7] and in assay [8] was “binds” in each case.
As for “SPL35 full-length, prey (AD) fusion in pGADT7 (rice)”, the binding entry in assay [1] and in assay [2] was “binds” throughout.
